In the supplement of paper PMC4604168 (melanoma cell lines):
The other results are listed elsewhere or left out. Many values rest on one well or one pass, so single values are uncertain.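 Cells were imaged in 1,536-well plates, and nuclei stained with an antibody against cleaved PARP were counted against all DNA-stained nuclei to give the apoptosis fraction. Screening doses were chosen to leave most cells alive, and resting and induced cleaved-PARP levels differ strongly between cell lines.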

Tests used:
Assay in all cases: cleaved PARP positive nuclei fraction relative to DMSO control; melanoma cells; higher = more apoptosis
Settings in all cases: library dose: low library concentration; 72 h
[1] = test system: COLO792
[2] = test system: COLO800
[3] = test system: COLO829
[4] = test system: G361
[5] = test system: IPC-298
[6] = test system: IST-MEL1
[7] = test system: LB2518-MEL
[8] = test system: LOXIMVI
[9] = test system: MEL-HO

| SMILES | cleaved PARP positive nuclei fraction [1] | cleaved PARP positive nuclei fraction [2] | cleaved PARP positive nuclei fraction [3] | cleaved PARP positive nuclei fraction [4] | cleaved PARP positive nuclei fraction [5] | cleaved PARP positive nuclei fraction [6] | cleaved PARP positive nuclei fraction [7] | cleaved PARP positive nuclei fraction [8] | cleaved PARP positive nuclei fraction [9] |
| --- | --- | --- | --- | --- | --- | --- | --- | --- | --- |
| CC1(C)CCC(c2ccc(Cl)cc2)=C(CN2CCN(c3ccc(C(=O)NS(=O)(=O)c4ccc(N[C@H](CCN5CCOCC5)CSc5ccccc5)c(S(=O)(=O)C(F)(F)F)c4)cc3)CC2)C1 + N#Cc1c(O)c2c(-c3ccc(-c4ccccc4O)cc3)csc2[nH]c1=O [A769662] (first compound 0.4 µM, partner dose 2 µM) | 624% | 161% | 218% | 141% | 42.5% | 194% | 202% | 33.2% |  |
| NC(=O)c1ccc(N(C(N)=O)c2c(F)cccc2F)nc1-c1ccc(F)cc1F + COc1cc(N2CCC(N3CCN(C)CC3)CC2)ccc1Nc1ncc(Cl)c(Nc2ccccc2S(=O)(=O)C(C)C)n1 [NVP-TAE684] (first compound 0.4 µM, partner dose 0.08 µM) | 107% | 160% | 84.3% | 165% | 91.2% | 90.4% | 35.6% | 85.1% |  |
| CC(=O)O[C@@]12CO[C@@H]1C[C@H](O)[C@@]1(C)C(=O)[C@H](O)C3=C(C)[C@@H](OC(=O)[C@H](O)[C@@H](NC(=O)OC(C)(C)C)c4ccccc4)C[C@@](O)([C@@H](OC(=O)c4ccccc4)[C@H]21)C3(C)C [Docetaxel] + Oc1nc(-c2ccc(C(F)(F)F)cc2)nc2c1CSCC2 [XAV939] (first compound 0.0001 µM, partner dose 2 µM) | 697% | 594% | 185% | 344% | 412% | 159% | 118% | 141% |  |
| CC(=O)O[C@@]12CO[C@@H]1C[C@H](O)[C@@]1(C)C(=O)[C@H](O)C3=C(C)[C@@H](OC(=O)[C@H](O)[C@@H](NC(=O)OC(C)(C)C)c4ccccc4)C[C@@](O)([C@@H](OC(=O)c4ccccc4)[C@H]21)C3(C)C [Docetaxel] + CC(C)(C)c1cnc(CSc2cnc(NC(=O)C3CCNCC3)s2)o1 [SNS-032] (first compound 0.0001 µM, partner dose 0.01 µM) | 328% | 77.4% | 205% | 785% | 127% | 297% | 129% | 112% | 218% |
| CC1(C)CCC(c2ccc(Cl)cc2)=C(CN2CCN(c3ccc(C(=O)NS(=O)(=O)c4ccc(N[C@H](CCN5CCOCC5)CSc5ccccc5)c(S(=O)(=O)C(F)(F)F)c4)cc3)CC2)C1 + COC(=O)c1sccc1S(=O)(=O)Nc1ccc(Nc2ccccc2)cc1OC [GSK0660] (first compound 0.4 µM, partner dose 1 µM) | 342% | 66.5% | 60.7% | 183% | 97.5% | 398% | 86.7% | 126% |  |
| CCN(CC)CCNC(=O)c1c(C)[nH]c(/C=C2\C(=O)Nc3ccc(F)cc32)c1C [sunitinib] + COC(=O)c1sccc1S(=O)(=O)Nc1ccc(Nc2ccccc2)cc1OC [GSK0660] (first compound 0.4 µM, partner dose 1 µM) | 37.6% | 116% | 60% | 75.3% | 61% | 71.9% | 201% | 107% |  |
| C[C@]1(O)C[C@@H](c2nc(-c3ccc4ccc(-c5ccccc5)nc4c3)c3c(N)nccn32)C1 + COc1cc2ncnc(Nc3ccc(Oc4ccccc4)cc3)c2cc1OC [SrcI1] (first compound 0.4 µM, partner dose 2 µM) | 77.8% | 176% | 96.6% | 114% | 154% | 120% | 137% | 48.7% |  |
| CCN(CC)CCNC(=O)c1c(C)[nH]c(/C=C2\C(=O)Nc3ccc(F)cc32)c1C [sunitinib] + CO[C@@H]1[C@H](N(C)C(=O)c2ccccc2)C[C@H]2O[C@]1(C)n1c3ccccc3c3c4c(c5c6ccccc6n2c5c31)C(=O)NC4 [Midostaurin] (first compound 0.4 µM, partner dose 0.08 µM) | 162% | 133% | 135% | 147% | 174% | 78.9% | 64.1% | 144% | 40.5% |
| Cn1cnc2c(F)c(Nc3ccc(Br)cc3Cl)c(C(=O)NOCCO)cc21 [selumetinib] + O=C(O)C(=O)Nc1sc2c(c1C(=O)O)CCNC2 [TCS401] (first compound 0.015 µM, partner dose 1.66667 µM) | 88.1% | 56.8% | 111% | 106% | 90.4% | 186% | 118% | 110% |  |
| CS(=O)(=O)c1ccc(C(=O)Nc2ccc(Cl)c(-c3ccccn3)c2)c(Cl)c1 [vismodegib] + Oc1nc(-c2ccc(C(F)(F)F)cc2)nc2c1CSCC2 [XAV939] (first compound 1 µM, partner dose 2 µM) | 112% | 50.2% | 51.9% | 142% | 48.3% | 61% | 73.6% | 49.5% |  |
| NC1(c2ccc(-c3nc4ccn5c(=O)[nH]nc5c4cc3-c3ccccc3)cc2)CCC1 + Cn1cncc1[C@@](N)(c1ccc(Cl)cc1)c1ccc2c(c1)c(-c1cccc(Cl)c1)cc(=O)n2C [tipifarnib] (first compound 0.4 µM, partner dose 0.01 µM) | 370% | 85.9% | 160% | 149% | 94.8% | 153% | 240% | 202% | 83% |
